The list shows a part of the results. The data scatter; read single values as rough.
What follows are targets tested with ClCC(=O)N[C@H]1CCCc2ccccc12 (assay: log2 mean competition ratio of IA-DTB cysteine labelling (DMSO/compound) (log2 ratio); higher = stronger cysteine engagement by compound). Conditions: 50 µM; treatment time: 4 h; cell line lysate: HEK293T.
Experimental: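 IA-DTB competitive cysteine chemoproteomics in HEK293T RIPA lysate. Lysates were treated with compound 29 or 30 at 50 or 200 µM for 4 h, then IA-DTB (500 µM, 1 h), trypsin-digested, NeutrAvidin-enriched and analysed by diaPASEF. Competition ratio = intensity DMSO / intensity compound (n=4 treated, n=64 DMSO); binding: mean log2 CR ≥ 1 and p ≤ 0.05 plus QC filters. Target is the cysteine site.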

Target | log2 mean competition ratio
DIAPH2 C159 (UniProt O60879) | -0.657
DFFB C194 (UniProt O76075) | 0.546
DNAJC13 C261 (UniProt O75165) | -0.484
DHX37 C638 (UniProt Q8IY37) | 0.155
DNMT1 C1191 (UniProt P26358) | -0.389
DMXL2 C1788 (UniProt Q8TDJ6) | -0.172
DOK1 C389 (UniProt Q99704) | 0.218
DHRS13 C28 (UniProt Q6UX07) | -0.253
DHX16 C486 (UniProt O60231) | -0.0795
DNAJC21 C3 (UniProt Q5F1R6) | 0.517
DHX40 C417 (UniProt Q8IX18) | -0.242
DOCK11 C1906 | -0.239
DOCK9 C613 (UniProt Q9BZ29) | -0.192
DPP8 C611 (UniProt Q6V1X1) | -0.266
DNMT1 C1339 (UniProt P26358) | -0.684
DNAJC13 C149 (UniProt O75165) | 0.189
DNM1L C361 (UniProt O00429) | -0.34
DLGAP5 C448 (UniProt Q15398) | 0.512
DEPDC5 C1053 (UniProt O75140) | 0.0203
DLG1 C378 (UniProt Q12959) | 0.174

Same assay, conditions: 200 µM; treatment time: 4 h; cell line lysate: HEK293T

Target | log2 mean competition ratio
DIAPH2 C159 (UniProt O60879) | -0.308
DFFB C194 (UniProt O76075) | 0.542
DNAJC13 C261 (UniProt O75165) | -0.0428
DHX37 C638 (UniProt Q8IY37) | 0.165
DNMT1 C1191 (UniProt P26358) | -0.364
DMXL2 C1788 (UniProt Q8TDJ6) | 0.309
DOK1 C389 (UniProt Q99704) | 0.0647
DHRS13 C28 (UniProt Q6UX07) | 0.234
DHX16 C486 (UniProt O60231) | 0.256
DNAJC21 C3 (UniProt Q5F1R6) | 0.146
DHX40 C417 (UniProt Q8IX18) | -0.266
DOCK11 C1906 | -0.279
DOCK9 C613 (UniProt Q9BZ29) | 0.143
DPP8 C611 (UniProt Q6V1X1) | 0.266
DNMT1 C1339 (UniProt P26358) | -0.15
DNAJC13 C149 (UniProt O75165) | -0.0114
DNM1L C361 (UniProt O00429) | 0.0203
DLGAP5 C448 (UniProt Q15398) | 0.18
DEPDC5 C1053 (UniProt O75140) | -0.103
DICER1 C1641 (UniProt Q9UPY3) | 0.00974
DLG1 C378 (UniProt Q12959) | 0.0207

Reference: the supplement of paper PMC11732987, “Enantioselective OTUD7B fragment discovery through chemoproteomics screening and high-throughput optimisation” (Communications Chemistry, 2025)
